According to patent US20170081419A1 (AbbVie / Abbott, published 2017):

B1: N35.6 (antibody, IgG2a, V domains shown)
VH: EVQLVESGGGLVKPGGSLKLSCAASGFTFSDYYMYWVRQTPEKRLEWVATISDGGTYIYYPDSVKGRFTISRDNAKNNLYLQMSSLKSEDTAMYYCVRDIDYDTSYPWFAYWGQGTLVTVSA
VL: RCDIQMTQTTSSLSASLGDRVTISCSASQGISNYLNWYQQKPDGTVKLLIYYTSSLHSGVPSRFSGSGSGTDYSLTINNLEPEDIATYYCQQYSKLPWTFGGGTKLEIKR
B2: N50.3 (antibody, IgG2b, V domains shown)
VH: EVLLHQSGPELVKPGASVKIPCKASGYTFTDYNMDWVKQSHGKSLEWIGDINPNNGGTFYNQKFKGKATLTVHKSSSTAFMELRSLTSEDTAVYYCTRSKYDNYPWFAYWGQGTLVTVSA
VL: DIQMTQITSSLSASLGDRVTISCSASQGISNYLNWYQQKPDGTVKLLIYYTSSLHSGVPSRFRGSGSGTNYSLTISNLEPEDIATYYCQQYIKLPWTFGGGTKLEIKR
notes: .3 is the subclone suffix; also called SC1.N50
B3: N53.5 (antibody, IgG1, V domains shown)
VH: QVQLQQSGPELVKPGASVKLSCKASGYTFTNYDINWVKQRPGQGLEWIGWIYPRDGSFKYNEKFKGKATLTVDTSSSTAYMDLHSLTSEDSAVFFCAVSEDGYPWFPYWGQGTLVTVSA
VL: B2 VL with D1G, I7T, R63S, N70D, W96F, G100S
B4: N54.4 (antibody, IgG2a, V domains shown)
VH: QVQLQQPGAELVKPGASVKLSCQTSGYTFTSYWMHWVKQRPGQGLEWIGEINPSNGRTNYNEKFKTKATLTVDKSSTTAYIQLNSLTSEDSAVYYCARLRDYGGWGQGTLVTVSA
VL: NIVMTQSPKSVSMSVGERVTLSCKASENVNTFVSWFQQKPDQSPKLLIYGASNRYPGVPDRFTGSGSATEFTLTISSVQAEDLADYHCGQSYSYPYTFGGGTKLEIKR
B5: N95.1 (antibody, IgG2a, V domains shown)
VH: QVQLQQSGAELARPGASVKLSCKASDYTFTSYGISWVKQRTGQGLEWIGEIFPRSGNTYYNEKFKGKATLTADKSSSTAYMELRSLTSEDSAVYFCARGLGGAMDYWGQGTSVIVSS
VL: DIVMTQAAPSVPVTPGESVSISCRSSKSLLHSNGNTYLYWFLQRPGQSPQLLIYRMSNLASGVPDRFSGSGSGTTFTLRISGVEAEDVGVYYCMQHLEYPCTFGGGTKLEIKR
notes: .1 is the subclone suffix; also called SC1.N95
B6: N146.2 (antibody, IgG1, V domains shown)
VH: EVQLVESGGGLVKPGGSLKLSCAASGFTFSSFGMSWVRQTPEKRLEWVAAINSNGGNTYYSDTVKGRFTISRDNAKNTLYLQMSSLRSADTALYYCARVVHFDVWGAGTTVTVSS
VL: AIQMTQTTSSLSASLGDRVTISCSASQDISNYLNWYQQKPDGTVKLLIYYTSSLHSGVPSRFSGSGSGTDYSLTISNVEPEDVATYYCQQYSELPYTFGGGTKLEINR
notes: Kept apart from m10, which is the mouse/human chimeric form of the same clone; also called SC1.N146 (murine hybridoma clone)
B7: N135.1 (antibody, IgG2b, V domains shown)
VH: DVQLVESGGGLVQPGGSRKLSCAASGFTFSSFGMHWVRQAPEKGLEWVAYISSATSAIYYADTVKGRFTISRDNPTNTLFLQMTSLRSEDTAMYYCARKGNNYFDYWGQGTTLTVSS
VL: QIVLTQSPAIMSASPGEKVTLSCSATSSVTYMHWLQQKPGSSPKPWIYRTSNLASGVPARFRGSGSGTSYSLTISSMEAEDAATYYCQQYHSYPPTFGGGTKLEIKR
notes: .1 is the subclone suffix; also called SC1.N135

The binders below were run against squirrel monkey CD46 homolog (squirrel monkey (Saimiri sciureus)) (assay: ForteBIO, concentration series of recombinant monomeric CD46 homolog).

Row | binding | Binder
1 | no binding | B1
2 | no binding | B2
3 | binds | B3
4 | binds | B4
5 | no binding | B5
6 | no binding | B6

What follows are binders tested against cynomolgus (macaque) CD46 homolog (macaque (cynomolgus)) in the same assay as above.

Row | binding | Binder
7 | binds | B2
8 | binds | B7
9 | binds | B5

Changes are numbered by the printed parent chain. No constants are given. Whether binding was seen depends on the method and setting. A result given as binding can be weak or reduced; the word gives no strength.
